Measurements published in PubChem BioAssay (NCATS).
This list was built around the results that the source calls inconclusive (neither active nor inactive); the mix of calls is not that of the screen. Potencies beside an inconclusive call are fits to weak or partial responses and may not hold up. Calls of active or inactive are those of the source. The call rests on the fitted dose curve; in most records, active means well fitted cell-killing curve with a large enough effect; inconclusive means small, poorly fitted or top-dose-only effect, or effect the other way; inactive means no such curve, though single readings can be large or run the other way.

Experiment: qHTS of pediatric cancer cell lines to identify multiple opportunities for drug repurposing: Confirmatory screen for MG 63 (6-TG R) cells (AID 1347119); further: nearly all actives have a fitted effect of over 55% in size
Details: MG-63 (6-TG resistant) osteosarcoma viability; activity change, negative = cytotoxicity: at 45.9 µM (top of the series)
From the text: Drug repurposing or repositioning has been offered as a strategy for drug development in oncology programs. This approach has special potential for childhood cancers and other rare or orphan diseases, where the expected return on new drug development has been a disincentive to pharmaceuticals.
In this project we exploit the poly-pharmacology of drugs to discover new indications via phenotypic screening of a panel of 19 well-characterized cell lines derived from solid tumors seen in children and adolescents. The goal is to identify approved drugs with previously unrecognized anticancer properties that has the potential to reveal new mechanisms and biological processes involved in carcinogenesis or drug resistance. We employed a titration-based paradigm (quantitative high-throughput screening or qHTS), where all compounds were tested at multiple concentrations for their effect on cell viability. Concentration-response curves (CRCs) were derived directly from the primary screen, and both potency and efficacy values were used to identify compounds with robust bioactivity profiles. We screened the NIH Chemical Genomics Center (NCGC) Pharmaceutical Collection (NPC) and Mechanism Interrogation Plate (MIPE) small molecule collections of approved and investigational compounds against these cell lines; and measured metabolically active cells after 48 hours of compound treatment as a proxy for cell viability.
Assay Submitter: Nathalia J. Martinez, National Center for Advancing Translational Sciences, National Institutes of Health, Rockville, MD, USA; email: natalia.martinez@nih.gov
[1] Shen, M et al. Quantitative high-throughput phenotypic screening of pediatric cancer cell lines identifies multiple opportunities for drug repurposing. Oncotarget 2017 Dec 19;9(4):4758-4772. PMID 29435139.
The cells were obtained from University of North Carolina (UNC), Pediatric Preclinical Testing Program (PPT), and Coriell Institute (CI).
qHTS cell viability assay:
Cells were assayed in growth media at a density of 500-1,000 cells/well. Five microliters of cells were dispensed into 1,536-well, white, solid-bottom, TC-treated plates (Greiner Bio One) using a multidrop dispenser and incubated at 37 degrees C, 5% CO2, under a humidified atmosphere for 5 hours. Twenty-three nanoliters of compounds and controls (neutral control DMSO or positive control bortezomib at final concentration of 2.3 µM) were subsequently transferred by Kalypsys pintool. For primary screens, the MIPE collection was tested at 11-point dilutions (final concentrations range from 0.78 nM to 46 µM) and the NPC collection at 8-point dilutions (final concentrations range from 0.59 nM to 46 µM). Compounds tested in follow-up screens were assayed at 11-point dilutions. Cells were incubated for 48 hours, followed by addition of 3 µL of CellTiter-Glo (Promega). After a 15 min incubation at room temperature, samples were analyzed for luminescence intensity using a ViewLux High-throughput CCD imager equipped with clear filters.
Potency means the concentration at half of the fitted maximal effect.

Structure (SMILES) | activity change, negative = cytotoxicity | Potency
Cc1c(NC(=O)OC[C@@H]2COCCN2)cn2ncnc(Nc3ccc4c(cnn4Cc4cccc(F)c4)c3)c12 | inactive: 1.48% | –
CC1(C)CCC(c2ccc(Cl)cc2)=C(CN2CCN(c3ccc(C(=O)NS(=O)(=O)c4ccc(N[C@H](CCN5CCOCC5)CSc5ccccc5)c(S(=O)(=O)C(F)(F)F)c4)cc3)CC2)C1 | inactive: -2.26% | –
CC(=O)[C@@]1(O)CC[C@H]2[C@@H]3C[C@H](C)C4=CC(=O)CC[C@]4(C)[C@H]3CC[C@@]21C | – | inconclusive: 36.9 µM [cytotoxic, partial curve, poor fit]
Cc1cnc(Nc2ccc(CN3CCOCC3)cc2)nc1Nc1cccc(S(=O)(=O)NC(C)(C)C)c1 | – | active: 4.14 µM
CCC(C(=O)OCCN(CC)CC)c1ccccc1 (stereo not given) | inactive: -16.9% | –
Cn1c(Nc2ccc(C(F)(F)F)cc2)nc2cc(Oc3ccnc(-c4ncc(C(F)(F)F)[nH]4)c3)ccc21 | – | active: 13.1 µM
Cn1cc(-c2cnn3c(N)c(Br)c([C@H]4CCCNC4)nc23)cn1 | – | inconclusive: 0.928 µM [cytotoxic, full curve]
CN(C)CC(C)(C)CNc1nn2c(-c3ccccc3)nnc2cc1C1CCC1 | inactive: -14.4% | –
CCc1cc2cc(OC)c(OC)cc2c(Cc2ccccc2)n1 | – | inconclusive: 29.3 µM [cytotoxic, partial curve, poor fit]
C[C@]12CC[C@@H]3c4ccc(O)cc4C[C@@H](CCCCCCCCCS(=O)CCCC(F)(F)C(F)(F)F)[C@H]3[C@@H]1CC[C@@H]2O (stereo not given in full) | – | inconclusive: 4.14 µM [cytotoxic, partial curve]
Cn1c2ccccc2c2c3c(c4c5ccccc5n(CCC#N)c4c21)CNC3=O | – | inconclusive: 26.1 µM [cytotoxic, single point]
CC(C)C[C@H](NC(=O)CNC(=O)c1cc(Cl)ccc1Cl)B(O)O | – | inconclusive: 0.0104 µM [cytotoxic, full curve, poor fit]
O=c1cc[nH]c(=S)[nH]1 | inactive: -24.5% | –
COC(=O)C=CC(=O)OC | – | active: 13.1 µM
CN[C@@H]1C[C@H]2O[C@@](C)([C@H]1OC)n1c3ccccc3c3c4c(c5c6ccccc6n2c5c31)C(=O)N[C@H]4O | – | active: 0.104 µM
C=CC(=O)Nc1ccc2ncnc(Nc3ccc(OCc4cccc(F)c4)c(Cl)c3)c2c1 | – | active: 8.27 µM
CCC(=C(c1ccccc1)c1ccc(OCCN(C)C)cc1)c1ccccc1 | – | inconclusive: 11.7 µM [rising, partial curve, poor fit]
O=[N+]([O-])c1ccc(/C=N\O)o1 | – | inconclusive: 23.3 µM [cytotoxic, partial curve]
CC(=O)NCC(=O)N1[C@H]2CC[C@H]1c1cc(Nc3ncc(C(F)(F)F)c(NC4CCC4)n3)ccc12 | – | active: 0.233 µM
CC(=O)Oc1ccc2c(c1)CC[C@@H]1[C@@H]2CC[C@]2(C)[C@@H](O)CC[C@@H]12 | – | inconclusive: 5.22 µM [cytotoxic, partial curve, poor fit]

Structure (SMILES) | activity change, negative = cytotoxicity | Potency
COc1cc2ncnc(Nc3ccc(F)c(Cl)c3)c2cc1OCCCN1CCOCC1 | – | active: 67.6 µM
O=C(CCCCCCC(=O)Nc1ccccc1)NO | – | inconclusive: 23.3 µM [cytotoxic, partial curve, poor fit]
Cc1nc(N)nc(N)c1-c1ccc(Cl)c(Cl)c1 | inactive: -0.956% | –
O=C(Cc1ccc(-c2ccc(OCCN3CCOCC3)cc2)cn1)NCc1ccccc1 | – | active: 0.0827 µM
N#Cc1c(C2CCNCC2)cc(-c2c(O)cccc2OCC2CC2)nc1N | – | inconclusive: 0.0037 µM [rising, full curve]
CCOc1cc2ncc(C#N)c(Nc3ccc(OCc4ccccn4)c(Cl)c3)c2cc1NC(=O)C=CCN(C)C | inconclusive: -34.6% [cytotoxic] | –
O=C(CCCN1CCC(O)(c2ccc(Br)cc2)CC1)c1ccc(F)cc1 | inactive: -13.2% | –
Cc1cc(Nc2cc(NC(=O)c3c(Cl)cccc3Cl)ccn2)nc(N)n1 | – | inconclusive: 1.17 µM [cytotoxic, full curve, poor fit]
C[C@@H]1C[C@H]2[C@@H]3CCC4=CC(=O)C=C[C@]4(C)[C@@]3(Cl)[C@@H](O)C[C@]2(C)[C@@]1(OC(=O)c1ccco1)C(=O)CCl | – | inconclusive: 36.9 µM [cytotoxic, single point]
COc1cc(O)c2c(c1)C1OC1C[C@H](O)[C@H](O)C(=O)C=CC[C@H](C)OC2=O (stereo not given in full) | – | active: 5.85 µM
Cc1ccc2nc(N)[nH]c(=O)c2c1Sc1ccncc1 | – | inconclusive: 3.29 µM [cytotoxic, full curve]
COc1ccc(F)c(F)c1C(=O)c1cnc(NC2CCN(S(C)(=O)=O)CC2)nc1N | – | inconclusive: 3.69 µM [cytotoxic, full curve]
COc1cc(=C2C=c3ccccc3=N2)[nH]c1=Cc1[nH]c(C)cc1C | – | inconclusive: 16.5 µM [cytotoxic, partial curve]
C[C@@]12O[C@@H](C[C@]1(O)CO)n1c3ccccc3c3c4c(c5c6ccccc6n2c5c31)CNC4=O | – | active: 1.47 µM
C=C[C@@]1(C)CC(=O)[C@]2(O)[C@@]3(C)[C@@H](O)CCC(C)(C)[C@@H]3[C@H](O)[C@H](OC(C)=O)[C@@]2(C)O1 | – | inconclusive: 11.7 µM [cytotoxic, partial curve]
COc1cc2nccc(Oc3ccc(NC(=O)C4(C(=O)Nc5ccc(F)cc5)CC4)cc3)c2cc1OC | – | inconclusive: 0.465 µM [cytotoxic, full curve, poor fit]
CCOC(=O)[C@@H](N)Cc1ccc(-c2cc(O[C@H](c3ccc(Cl)cc3-n3ccc(C)n3)C(F)(F)F)nc(N)n2)cc1 | – | inconclusive: 36.9 µM [cytotoxic, single point]
CC(C)c1cc(C(=O)N2Cc3ccc(CN4CCN(C)CC4)cc3C2)c(O)cc1O | – | inconclusive: 0.827 µM [cytotoxic, full curve, poor fit]
NC(=O)c1cccc2cn(-c3ccc([C@@H]4CCCNC4)cc3)nc12 | – | inconclusive: 4.14 µM [cytotoxic, partial curve]
Nc1nc(N)c2nc(-c3ccccc3)c(N)nc2n1 | – | inconclusive: 36.9 µM [cytotoxic, single point]

Record cards, from the list above.
C[C@@H]1C[C@H]2[C@@H]3CCC4=CC(=O)C=C[C@]4(C)[C@@]3(Cl)[C@@H](O)C[C@]2(C)[C@@]1(OC(=O)c1ccco1)C(=O)CCl in the list: Potency: inconclusive: 36.9 µM [cytotoxic, single point]
Cc1nc(N)nc(N)c1-c1ccc(Cl)c(Cl)c1 in the list: activity change, negative = cytotoxicity: inactive: -0.956%
